Assay results published in PMC4834435.
Positions count from the first letter of the chain named. No constants are given. Whether binding was seen depends on the method and setting. For some of these results: Binding seen in cells or lysates may run through a third protein. Some results given as binding are weak or reduced against the parent protein; the word gives no strength. Where a sequence is shown, tags or fusion partners need not be part of it. One block for each binder: values may come before it.

Columns and labels:
[1] = target: T1, His-tagged Orc1 R367A (S. cerevisiae) (UniProt P54784); assay: SEC; Superdex 200 in buffer H/0.2 (200 mM KCl) of the peak fractions after His affinity step and SP Sepharose; fractions on 9% SDS-PAGE, Coomassie; subunits co-expressed in 293T cells
T1 sequence: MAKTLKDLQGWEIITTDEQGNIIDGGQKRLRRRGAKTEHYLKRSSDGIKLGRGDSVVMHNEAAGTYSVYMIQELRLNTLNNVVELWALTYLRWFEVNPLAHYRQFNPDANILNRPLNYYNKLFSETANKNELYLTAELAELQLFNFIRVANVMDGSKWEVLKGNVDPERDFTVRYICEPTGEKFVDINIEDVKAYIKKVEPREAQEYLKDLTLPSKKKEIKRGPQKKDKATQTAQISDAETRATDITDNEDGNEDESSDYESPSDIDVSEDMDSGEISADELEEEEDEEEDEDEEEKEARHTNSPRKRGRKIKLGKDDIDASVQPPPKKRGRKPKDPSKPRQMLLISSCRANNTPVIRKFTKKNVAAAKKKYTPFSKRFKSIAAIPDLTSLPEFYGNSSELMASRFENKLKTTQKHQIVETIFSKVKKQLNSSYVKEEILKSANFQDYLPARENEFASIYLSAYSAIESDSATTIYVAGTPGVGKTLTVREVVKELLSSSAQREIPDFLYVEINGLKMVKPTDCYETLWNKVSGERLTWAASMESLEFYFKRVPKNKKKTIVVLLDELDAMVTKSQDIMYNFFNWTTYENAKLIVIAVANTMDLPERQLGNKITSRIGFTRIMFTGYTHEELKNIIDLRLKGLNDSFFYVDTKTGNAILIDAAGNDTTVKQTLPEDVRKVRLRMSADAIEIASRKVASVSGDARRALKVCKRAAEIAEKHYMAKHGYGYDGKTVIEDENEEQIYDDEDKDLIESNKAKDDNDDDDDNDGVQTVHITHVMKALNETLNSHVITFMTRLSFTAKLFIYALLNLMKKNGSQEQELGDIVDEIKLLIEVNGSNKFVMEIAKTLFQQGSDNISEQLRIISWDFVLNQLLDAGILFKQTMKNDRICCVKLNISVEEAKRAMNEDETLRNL

[2] = target: T2, His-tagged Orc1 K362A (S. cerevisiae) (UniProt P54784); assay: as above
T2 sequence: T1 sequence with K362A, A367R

[3] = target: T3, His-tagged Orc1 (Orc1-His), wild type (S. cerevisiae) (UniProt P54784); assay: as above
T3 sequence: T1 sequence with A367R

[4] = target: T1, His-tagged Orc1 R367A (S. cerevisiae); assay: HisTrap affinity column chromatography; HisTrap column with linear imidazole gradient elution of lysate of 293T cells co-overexpressing His-tagged Orc1 (wild type or mutant) and Orc2/3/4/5/6; fractions on 9% SDS-PAGE, Coomassie
[5] = target: T2, His-tagged Orc1 K362A (S. cerevisiae); assay: as above
[6] = target: T3, His-tagged Orc1 (Orc1-His), wild type (S. cerevisiae); assay: as above
[7] = target: T3, His-tagged Orc1 (Orc1-His), wild type (S. cerevisiae); assay: pull-down; cleared lysates of 293T cells co-overexpressing Orc1-His, Orc2, Orc3, Orc4, Orc5 with or without Orc6; pulldown by the His tag; 9% SDS-PAGE, Coomassie staining
[8] = target: T3, His-tagged Orc1 (Orc1-His), wild type (S. cerevisiae); assay: pull-down; MagneHis beads, 1 h, in lysis buffer (50 mM Hepes-KOH pH 7.6, 0.3% NP-40, 400 mM KCl, 17.5 mM imidazole) with nuclease-treated lysate of 293T cells co-overexpressing Orc1-His and Orc2/3/4/5; five washes, elution with 500 mM imidazole; SDS-PAGE, Coomassie

binding [1]: binds
binding [2]: binds
binding [3]: binds
binding [4]: binds
binding [5]: binds
binding [6]: binds
binding [7]: binds
binding [8]: binds
B1: Orc3 (protein, UniProt P54790 1-616)
chain: MSDLNQSKKMNVSEFADAQRSHYTVYPSLPQSNKNDKHIPFVKLLSGKESEVNVEKRWELYHQLHSHFHDQVDHIIDNIEADLKAEISDLLYSETTQKRRCFNTIFLLGSDSTTKIELKDESSRYNVLIELTPKESPNVRMMLRRSMYKLYSAADAEEHPTIKYEDINDEDGDFTEQNNDVSYDLSLVENFKRLFGKDLAMVFNFKDVDSINFNTLDNFIILLKSAFKYDHVKISLIFNINTNLSNIEKNLRQSTIRLLKRNYHKLDVSSNKGFKYGNQIFQSFLDTVDGKLNLSDRFVEFILSKMANNTNHNLQLLTKMLDYSLMSYFFQNAFSVFIDPVNVDFLNDDYLKILSRCPTFMFFVEGLIKQHAPADEILSLLTNKNRGLEEFFVEFLVRENPINGHAKFVARFLEEELNITNFNLIELYHNLLIGKLDSYLDRWSACKEYKDRLHFEPIDTIFQELFTLDNRSGLLTQSIFPSYKSNIEDNLLSWEQVLPSLDKENYDTLSGDLDKIMAPVLGQLFKLYREANMTINIYDFYIAFRETLPKEEILNFIRKDPSNTKLLELAETPDAFDKVALILFMQAIFAFENMGLIKFQSTKSYDLVEKCVWRGI

binding [1]: binds
binding [2]: binds
binding [4]: binds
binding [5]: binds
B2: Orc6 (protein, UniProt P38826 1-435)
chain: MSMQQVQHCVAEVLRLDPQEKPDWSSGYLKKLTNATSILYNTSLNKVMLKQDEEVARCHICAYIASQKMNEKHMPDLCYYIDSIPLEPKKAKHLMNLFRQSLSNSSPMKQFAWTPSPKKNKRSPVKNGGRFTSSDPKELRNQLFGTPTKVRKSQNNDSFVIPELPPMQTNESPSITRRKLAFEEDEDEDEEEPGNDGLSLKSHSNKSITGTRNVDSDEYENHESDPTSEEEPLGVQESRSGRTKQNKAVGKPQSELKTAKALRKRGRIPNSLLVKKYCKMTTEEIIRLCNDFELPREVAYKIVDEYNINASRLVCPWQLVCGLVLNCTFIVFNERRRKDPRIDHFIVSKMCSLMLTSKVDDVIECVKLVKELIIGEKWFRDLQIRYDDFDGIRYDEIIFRKLGSMLQTTNILVTDDQYNIWKKRIEMDLALTEPL

binding [1]: binds
binding [2]: binds
binding [4]: binds
binding [5]: binds
B3: Orc2 (protein, UniProt P32833 1-620)
chain: MLNGEDFVEHNDILSSPAKSRNVTPKRVDPHGERQLRRIHSSKKNLLERISLVGNERKNTSPDPALKPKTPSKAPRKRGRPRKIQEELTDRIKKDEKDTISSKKKRKLDKDTSGNVNEESKTSNNKQVMEKTGIKEKREREKIQVATTTYEDNVTPQTDDNFVSNSPEPPEPATPSKKSLTTNHDFTSPLKQIIMNNLKEYKDSTSPGKLTLSRNFTPTPVPKNKKLYQTSETKSASSFLDTFEGYFDQRKIVRTNAKSRHTMSMAPDVTREEFSLVSNFFNENFQKRPRQKLFEIQKKMFPQYWFELTQGFSLLFYGVGSKRNFLEEFAIDYLSPKIAYSQLAYENELQQNKPVNSIPCLILNGYNPSCNYRDVFKEITDLLVPAELTRSETKYWGNHVILQIQKMIDFYKNQPLDIKLILVVHNLDGPSIRKNTFQTMLSFLSVIRQIAIVASTDHIYAPLLWDNMKAQNYNFVFHDISNFEPSTVESTFQDVMKMGKSDTSSGAEGAKYVLQSLTVNSKKMYKLLIETQMQNMGNLSANTGPKRGTQRTGVELKLFNHLCAADFIASNEIALRSMLREFIEHKMANITKNNSGMEIIWVPYTYAELEKLLKTVLNTL
